Reference: PubChem BioAssay AID1259405 (NCATS, 2018)

- Assay: 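Silenced genes that increase secreted GFP made by CHO cells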 (primary screen)
- System: Chinese hamster CHO-K1 ovary cells with stable secreted eGFP expression
- Reagent: single siRNA against mouse genes, 0.8 pmol siRNA per well (2 µl of 400 nM stock)
- Timing: 3 days
- Detection: 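Percent of the per-plate non-targeting control median for intracellular GFP per well by laser scanning cytometry and for cell viability by ATP luminescence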
- Direction: GFP, % of control: higher = more GFP per well, higher productivity; viability (ATP), % of control: higher = more viable cells (more ATP)
- Rule for the call: 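Called active when intracellular GFP, relative to negative control, is at or above 120%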
Shown is an unselected part of about 50,000 reagents. Of all reagents, about 4,000 (8%) are marked active. 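Mouse siRNA library applied to hamster cells; one well for each siRNA.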 A number with no mark means an inactive call. Reagents against one gene are numbered here. Reagent sequences are not shown.

gene | reagent no. | GFP, % of control | viability (ATP), % of control
Plp1 | 1 | 60.1 | 60.4
Plp1 | 2 | 89.6 | 77
Plp1 | 3 | 43 | 48.2
Spmip4 | 1 | 77.4 | 71.6
Spmip4 | 2 | 49.8 | 62.4
Spmip4 | 3 | 61.6 | 68.4
Vmn1r230 | 1 | 62.7 | 46.1
Vmn1r230 | 2 | 83.1 | 71
Vmn1r230 | 3 | 51.3 | 89.5
Lhx1 | 1 | 59.5 | 106
Lhx1 | 2 | 110 | 89
Lhx1 | 3 | 59 | 80.7
Gen1 | 1 | 73.6 | 58
Gen1 | 2 | 62.6 | 69.7
Gen1 | 3 | 59.5 | 59
Ift57 | 1 | 98.9 | 114
Ift57 | 2 | 83.6 | 78.1
Gm5084 | 1 | 70.6 | 69.4
Gm5084 | 2 | 28 | 43.5
Gm5084 | 3 | 58.7 | 85.7
Obox5 | 1 | 76.7 | 104
Obox5 | 2 | 84 | 65.6
Obox5 | 3 | 65.1 | 59.9
Dkk3 | 1 | 82.5 | 96.1
Dkk3 | 2 | 93 | 127
Dkk3 | 3 | 24.7 | 64
9530068E07Rik | 1 | 69.8 | 55.6
9530068E07Rik | 2 | 69.8 | 94.5
9530068E07Rik | 3 | 84.2 | 88.2
Tmsb15l | 1 | 60.5 | 57.8
Tmsb15l | 2 | 60 | 58.7
Tmsb15l | 3 | 120 (active) | 112
Hcn1 | 1 | 129 (active) | 109
Hcn1 | 2 | 134 (active) | 58.6
Hcn1 | 3 | 98.3 | 83.6
Acsm3 | 1 | 96.3 | 53.4
Acsm3 | 2 | 67.8 | 60.5
Acsm3 | 3 | 82.2 | 86.7
Sult1c1 | 1 | 185 (active) | 137
Sult1c1 | 2 | 79.2 | 97.7
Sult1c1 | 3 | 63 | 65.6
Prxl2c | 1 | 96.6 | 117
Prxl2c | 2 | 84 | 88.2
Prxl2c | 3 | 22.3 | 25
Smpdl3b | 1 | 89.1 | 55
Smpdl3b | 2 | 70.1 | 87.2
Smpdl3b | 3 | 107 | 87.4

16 entries from above, sorted by “viability (ATP), % of control”, descending.
gene | reagent no. | GFP, % of control | viability (ATP), % of control
Dkk3 | 2 | 93 | 127
Tmsb15l | 3 | 120 (active) | 112
Hcn1 | 1 | 129 (active) | 109
Obox5 | 1 | 76.7 | 104
Dkk3 | 1 | 82.5 | 96.1
9530068E07Rik | 2 | 69.8 | 94.5
9530068E07Rik | 3 | 84.2 | 88.2
Gm5084 | 3 | 58.7 | 85.7
Obox5 | 2 | 84 | 65.6
Dkk3 | 3 | 24.7 | 64
Obox5 | 3 | 65.1 | 59.9
Tmsb15l | 2 | 60 | 58.7
Hcn1 | 2 | 134 (active) | 58.6
Tmsb15l | 1 | 60.5 | 57.8
9530068E07Rik | 1 | 69.8 | 55.6
Gm5084 | 2 | 28 | 43.5

Additional reagents follow.
gene | reagent no. | GFP, % of control | viability (ATP), % of control
Mrpl13 | 1 | 40.1 | 58
Mrpl13 | 2 | 111 | 67.7
Mrpl13 | 3 | 75.9 | 73.9
Emp1 | 1 | 69.4 | 64.1
Emp1 | 2 | 75.3 | 90.3
Emp1 | 3 | 50.7 | 78.5
Tmem204 | 1 | 57.3 | 53.6
Tmem204 | 2 | 126 (active) | 103
Tmem204 | 3 | 128 (active) | 150
Rgs7 | 1 | 107 | 105
Rgs7 | 2 | 118 | 63.5
Rgs7 | 3 | 85 | 69.8
Dffa | 1 | 87.2 | 121
Dffa | 2 | 191 (active) | 150
Rps13 | 1 | 60.5 | 32.1
Rps13 | 2 | 43.6 | 34
Rps13 | 3 | 72.4 | 76.1
Mdga2 | 1 | 122 (active) | 89
Mdga2 | 2 | 78.7 | 97
Mdga2 | 3 | 41 | 64.1
Zfp398 | 1 | 52.2 | 63.9
Zfp398 | 2 | 65.3 | 74.8
Zfp398 | 3 | 65 | 74.5
Sprr3 | 1 | 84.1 | 84.4
Sprr3 | 2 | 144 (active) | 115
Rheb | 1 | 157 (active) | 85
Rheb | 2 | 85.2 | 69.9
Rheb | 3 | 92.1 | 69
Haus6 | 1 | 29 | 49.3
Haus6 | 2 | 78.1 | 77.9
Haus6 | 3 | 101 | 118
Zfand2a | 1 | 69.8 | 67.2
Zfand2a | 2 | 79.4 | 98.1
Zfand2a | 3 | 36.9 | 49.2
Zmat3 | 1 | 53.4 | 74
Zmat3 | 2 | 88.2 | 79.9
Zmat3 | 3 | 75.1 | 77.7
Noxa1 | 1 | 64.7 | 64.1
Noxa1 | 2 | 110 | 89.7
Noxa1 | 3 | 75.4 | 52.4
Krtap5-4 | 1 | 37 | 48.5
Krtap5-4 | 2 | 90.8 | 88.9
Krtap5-4 | 3 | 170 (active) | 59.8
Nkx2-1 | 1 | 87.2 | 84.4
Nkx2-1 | 2 | 65.9 | 99.7
B230325K18Rik | 1 | 63.5 | 50.8
B230325K18Rik | 2 | 91.5 | 83.4
B230325K18Rik | 3 | 91.4 | 90
Slc12a1 | 1 | 61.8 | 51.1
Slc12a1 | 2 | 59.3 | 62
Slc12a1 | 3 | 62.1 | 96.3
Reep4 | 1 | 106 | 78.7
Reep4 | 2 | 57.7 | 58.6
Reep4 | 3 | 101 | 140
Slc25a28 | 1 | 86.4 | 84.3
Slc25a28 | 2 | 45.7 | 80.4
Slc25a28 | 3 | 53.1 | 43.5
Fndc3b | 1 | 91 | 78.1
Fndc3b | 2 | 104 | 105
Fndc3b | 3 | 87.9 | 67.3
